According to patent US20240269145A1, “USE OF INDOLE COMPOUND AS INHIBITORS OF FERROPTOSIS” (MITOIMMUNE THERAPEUTICS INC., priority 2023, published 2024):
At least one structure is not confirmed: it was looked up by name or label, or the drawing left a doubt.

Legend:
Format in all cases: cell-based
[1] = system: H9C2 cells; experiment: Cytosolic iron ion accumulation (FerroOrange, images) after erastin; conditions: H9C2, erastin 1 μM, 7 hours; Example Compound 1 1 μM, DFO 10 or 100 μM
Protocol: (§1) To confirm the inhibitory effect against cytosolic iron ion accumulation in adrenal medulla cells and cardiac cells, 3×10^5 PC-12 cells and H9C2 cells were each dispensed into a 35 mm confocal dish and cultured for 18 to 36 hours. Each well was treated with the Example Compound 1, which was diluted so that the final concentration became 1 μM, and with DFO, which was diluted so that the final concentration became 10 µM and 100 μM, and culture was performed for 20 to 30 minutes. Afterwards, the PC-12 cells and H9C2 cells were each treated with RSL3 and erastin so that their final concentration became 0.3 µM and 1 μM, respectively, and cultured for 1 hour and 7 hours. To confirm the inhibitory effect against cytosolic iron ion accumulation, FerroOrange [DOJINDO; F374] was used. According to the manufacturer's experimental method, FerroOrange was diluted in the cell culture medium so that the final concentration became 1 μM, and the cells were treated therewith. […] The cells fluorescently stained with FerroOrange were observed using a fluorescence microscope [Carl Zeiss; Axio Observer 7] to investigate the change in fluorescence (excitation/absorption 580 nm/543 nm) compared to the control group (RSL3 and erastin untreated group).

[2] = system: PC-12 cells; experiment: Cytosolic iron ion accumulation (FerroOrange, images) after RSL3; conditions: PC-12, 0.3 μM RSL3, 1 hour; Example Compound 1 1 μM, DFO 10 or 100 μM
Protocol: as §1

[3] = system: MLE-12 cells; experiment: Mitochondrial iron ion accumulation (Mito-FerroGreen, images) after RSL3; conditions: MLE-12, RSL3 1 μM, 1 hour 30 minutes; Example Compound 1 1 μM, DFO 10 μM
Protocol: (§2) Experimental Example 9-1: To confirm the inhibitory effect against mitochondrial iron ion accumulation in lung epithelial cells and adrenal medulla cells, 3×10^5 MLE-12 cells and PC-12 cells were each dispensed into a confocal dish and cultured for 18 to 24 hours. Each well was treated with Example Compound 1 and DFO, which were diluted so that their final concentration became 1 μM and 10 μM, respectively, and culture was performed for 20 minutes. Afterwards, the MLE-12 cells were treated with RSL3 so that the final concentration became 1 μM, and cultured for 1 hour and 30 minutes, and the PC-12 cells were treated with RSL3 so that the final concentration became 0.3 μM, and cultured for 30 minutes. To confirm the inhibitory effect against mitochondrial iron ion accumulation, Mito-FerroGreen [DOJINDO; M489] was used. According to the manufacturer's experimental method, Mito-FerroGreen was diluted in the cell culture medium so that the final concentration became 1 μM, and the cells were treated therewith and allowed to react for 30 minutes to perform fluorescent staining. The cells fluorescently stained with Mito-FerroGreen were observed using a fluorescence microscope [Carl Zeiss; Axio Observer 7] to investigate the change in fluorescence (excitation/absorption 450 to 490 nm/500 to 550 nm) compared to the control group (RSL3 untreated group).

[4] = system: PC-12 cells; experiment: as above; conditions: PC-12, RSL3 0.3 μM, 30 minutes; Example Compound 1 1 μM, DFO 10 μM
Protocol: as §2

[5] = system: H9C2 cells; experiment: Mitochondrial iron ion accumulation (Mito-FerroGreen, images) after erastin; conditions: H9C2, erastin 5 μM, 5 hr; Example Compound 1 1 μM, DFO 100 μM
Protocol: [The source words this procedure for another cell line and says it was used here with some conditions changed.] as §2, with “group). […]” for “group).”

Question: Which results are given for `CC(=O)N(O)CCCCCNC(=O)CCC(=O)N(O)CCCCCNC(=O)CCC(=O)N(O)CCCCCN` [DFO, deferoxamine, reference compound]?
Answer: cytosolic iron ion accumulation (images) [1]: decrease was confirmed; cytosolic iron ion accumulation (images) [2]: decrease was confirmed; mitochondrial iron ion accumulation (images) [3]: decrease was confirmed; mitochondrial iron ion accumulation (images) [4]: decrease was confirmed; mitochondrial iron ion accumulation (images) [5]: inhibited
